Results as given in the supplement of paper PMC12819154, “High-throughput peptide-centric local stability assay extends protein–ligand identification to membrane proteins, tissues and bacteria” (Nature Structural & Molecular Biology, 2025).
Some of the results follow. Most entries show no effect beyond the scatter of the controls.

Chains of the proteins cited; added tags and fusions are not shown. Lines headed by an entry give the natural chain unless they say otherwise; changes in a name come on top.
UniProt P15907: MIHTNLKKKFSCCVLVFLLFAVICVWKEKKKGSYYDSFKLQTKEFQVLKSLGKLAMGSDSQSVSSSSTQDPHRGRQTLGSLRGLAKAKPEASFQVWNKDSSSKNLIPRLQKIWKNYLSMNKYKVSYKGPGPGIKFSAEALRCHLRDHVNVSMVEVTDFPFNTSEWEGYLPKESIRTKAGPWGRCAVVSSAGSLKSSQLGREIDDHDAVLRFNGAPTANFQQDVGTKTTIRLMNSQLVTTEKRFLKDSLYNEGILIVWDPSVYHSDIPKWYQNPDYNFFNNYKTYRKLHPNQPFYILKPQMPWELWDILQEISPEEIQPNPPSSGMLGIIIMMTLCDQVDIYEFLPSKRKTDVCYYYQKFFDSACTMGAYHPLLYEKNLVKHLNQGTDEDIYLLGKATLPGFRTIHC
UniProt P26358: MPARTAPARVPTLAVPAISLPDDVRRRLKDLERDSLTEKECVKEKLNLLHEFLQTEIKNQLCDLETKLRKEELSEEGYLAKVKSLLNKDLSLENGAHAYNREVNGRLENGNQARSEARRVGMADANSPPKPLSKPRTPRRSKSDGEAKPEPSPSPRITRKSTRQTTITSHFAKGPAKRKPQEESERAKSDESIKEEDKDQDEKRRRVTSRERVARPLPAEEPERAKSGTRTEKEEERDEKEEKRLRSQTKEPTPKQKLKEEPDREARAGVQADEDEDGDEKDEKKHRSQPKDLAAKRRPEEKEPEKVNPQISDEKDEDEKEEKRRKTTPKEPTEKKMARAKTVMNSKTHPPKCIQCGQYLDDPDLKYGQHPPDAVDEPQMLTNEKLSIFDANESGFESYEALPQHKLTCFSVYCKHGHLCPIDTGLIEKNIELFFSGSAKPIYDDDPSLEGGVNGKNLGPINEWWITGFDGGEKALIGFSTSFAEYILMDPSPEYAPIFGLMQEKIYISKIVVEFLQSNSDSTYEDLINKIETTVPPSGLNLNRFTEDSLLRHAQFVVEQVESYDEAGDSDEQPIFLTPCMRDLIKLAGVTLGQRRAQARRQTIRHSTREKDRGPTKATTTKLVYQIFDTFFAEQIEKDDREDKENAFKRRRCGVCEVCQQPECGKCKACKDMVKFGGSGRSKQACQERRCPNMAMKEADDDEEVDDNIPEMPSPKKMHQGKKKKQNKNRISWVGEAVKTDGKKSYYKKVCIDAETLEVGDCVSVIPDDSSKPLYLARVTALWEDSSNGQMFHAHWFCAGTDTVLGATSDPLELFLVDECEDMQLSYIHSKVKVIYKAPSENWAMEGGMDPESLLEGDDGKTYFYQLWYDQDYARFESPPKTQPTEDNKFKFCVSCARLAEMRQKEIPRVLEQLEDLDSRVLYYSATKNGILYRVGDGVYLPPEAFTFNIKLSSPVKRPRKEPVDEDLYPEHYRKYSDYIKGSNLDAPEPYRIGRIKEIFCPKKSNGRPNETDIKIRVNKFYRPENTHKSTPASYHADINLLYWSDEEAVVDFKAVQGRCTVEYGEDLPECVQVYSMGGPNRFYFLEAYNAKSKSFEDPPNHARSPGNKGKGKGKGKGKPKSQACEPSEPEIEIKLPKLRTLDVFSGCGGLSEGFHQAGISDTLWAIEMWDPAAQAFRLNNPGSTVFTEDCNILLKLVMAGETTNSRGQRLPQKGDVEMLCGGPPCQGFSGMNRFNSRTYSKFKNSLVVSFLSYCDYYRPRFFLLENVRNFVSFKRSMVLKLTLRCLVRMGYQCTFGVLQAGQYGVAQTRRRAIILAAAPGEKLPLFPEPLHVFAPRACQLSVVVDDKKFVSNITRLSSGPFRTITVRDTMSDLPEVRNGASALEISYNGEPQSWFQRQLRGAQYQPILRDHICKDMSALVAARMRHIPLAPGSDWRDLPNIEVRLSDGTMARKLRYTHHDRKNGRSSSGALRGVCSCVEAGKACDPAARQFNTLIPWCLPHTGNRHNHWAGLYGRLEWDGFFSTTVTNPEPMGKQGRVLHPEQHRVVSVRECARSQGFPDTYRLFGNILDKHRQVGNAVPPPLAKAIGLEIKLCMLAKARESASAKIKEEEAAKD
UniProt P16401, whole entry: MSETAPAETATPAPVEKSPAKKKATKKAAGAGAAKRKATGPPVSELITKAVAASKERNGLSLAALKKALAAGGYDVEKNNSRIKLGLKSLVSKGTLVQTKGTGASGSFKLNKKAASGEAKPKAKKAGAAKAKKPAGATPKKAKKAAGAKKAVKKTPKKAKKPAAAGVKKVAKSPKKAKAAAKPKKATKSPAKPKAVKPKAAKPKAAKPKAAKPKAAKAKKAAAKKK
UniProt P15622: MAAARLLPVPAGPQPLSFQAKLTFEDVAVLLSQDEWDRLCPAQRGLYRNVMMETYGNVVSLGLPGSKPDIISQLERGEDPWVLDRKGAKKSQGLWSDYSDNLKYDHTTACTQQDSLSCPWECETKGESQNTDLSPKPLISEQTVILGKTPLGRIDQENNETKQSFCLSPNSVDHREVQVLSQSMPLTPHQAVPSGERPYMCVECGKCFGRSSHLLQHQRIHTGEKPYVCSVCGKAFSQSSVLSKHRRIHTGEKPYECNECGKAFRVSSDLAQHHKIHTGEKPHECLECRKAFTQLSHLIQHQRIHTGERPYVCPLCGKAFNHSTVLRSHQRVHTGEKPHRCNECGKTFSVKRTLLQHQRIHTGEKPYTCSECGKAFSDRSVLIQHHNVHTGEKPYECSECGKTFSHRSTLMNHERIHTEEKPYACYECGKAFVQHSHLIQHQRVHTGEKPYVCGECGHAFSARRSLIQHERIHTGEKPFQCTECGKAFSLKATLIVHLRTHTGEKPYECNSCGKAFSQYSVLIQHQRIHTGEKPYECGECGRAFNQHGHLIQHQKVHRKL
UniProt P19532: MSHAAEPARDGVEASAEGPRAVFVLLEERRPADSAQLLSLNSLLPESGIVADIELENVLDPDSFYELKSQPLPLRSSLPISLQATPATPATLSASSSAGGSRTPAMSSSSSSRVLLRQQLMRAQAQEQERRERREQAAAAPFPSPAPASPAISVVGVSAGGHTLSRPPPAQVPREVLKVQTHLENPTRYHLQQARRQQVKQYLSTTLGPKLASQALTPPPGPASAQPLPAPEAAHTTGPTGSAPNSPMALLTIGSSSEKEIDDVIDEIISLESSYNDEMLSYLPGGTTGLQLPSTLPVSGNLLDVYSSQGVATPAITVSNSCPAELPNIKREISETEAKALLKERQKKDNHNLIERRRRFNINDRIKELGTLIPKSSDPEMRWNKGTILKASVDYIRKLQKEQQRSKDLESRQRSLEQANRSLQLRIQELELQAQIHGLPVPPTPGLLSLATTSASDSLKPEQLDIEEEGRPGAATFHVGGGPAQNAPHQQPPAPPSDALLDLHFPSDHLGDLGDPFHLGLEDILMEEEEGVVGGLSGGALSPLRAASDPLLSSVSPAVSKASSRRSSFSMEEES
UniProt P13995: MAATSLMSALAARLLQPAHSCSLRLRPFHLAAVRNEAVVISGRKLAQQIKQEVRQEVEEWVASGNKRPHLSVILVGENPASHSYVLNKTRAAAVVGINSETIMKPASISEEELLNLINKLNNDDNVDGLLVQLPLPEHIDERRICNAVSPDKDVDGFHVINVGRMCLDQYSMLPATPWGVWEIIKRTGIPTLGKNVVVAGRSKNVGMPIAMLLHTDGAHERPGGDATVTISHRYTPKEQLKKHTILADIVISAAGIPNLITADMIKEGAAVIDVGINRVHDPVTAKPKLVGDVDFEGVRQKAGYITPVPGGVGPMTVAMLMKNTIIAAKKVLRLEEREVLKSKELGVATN
UniProt P17481: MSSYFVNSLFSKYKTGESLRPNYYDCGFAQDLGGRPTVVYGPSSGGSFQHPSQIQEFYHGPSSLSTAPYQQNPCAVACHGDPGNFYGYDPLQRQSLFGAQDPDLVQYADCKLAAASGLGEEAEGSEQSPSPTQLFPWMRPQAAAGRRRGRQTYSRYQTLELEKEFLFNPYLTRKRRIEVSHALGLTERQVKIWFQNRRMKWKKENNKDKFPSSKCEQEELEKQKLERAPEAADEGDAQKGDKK
UniProt P25490, whole entry: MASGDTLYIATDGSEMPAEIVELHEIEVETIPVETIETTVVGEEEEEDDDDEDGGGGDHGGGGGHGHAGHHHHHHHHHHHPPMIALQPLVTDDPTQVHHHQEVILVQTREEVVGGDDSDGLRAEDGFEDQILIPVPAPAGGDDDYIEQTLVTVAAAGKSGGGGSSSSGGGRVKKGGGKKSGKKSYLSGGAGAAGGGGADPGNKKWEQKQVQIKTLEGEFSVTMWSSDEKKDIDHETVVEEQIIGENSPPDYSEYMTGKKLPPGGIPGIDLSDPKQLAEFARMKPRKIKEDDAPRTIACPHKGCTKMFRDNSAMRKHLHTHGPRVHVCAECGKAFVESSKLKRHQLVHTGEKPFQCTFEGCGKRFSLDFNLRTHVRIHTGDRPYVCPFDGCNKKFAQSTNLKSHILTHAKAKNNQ
UniProt P16885: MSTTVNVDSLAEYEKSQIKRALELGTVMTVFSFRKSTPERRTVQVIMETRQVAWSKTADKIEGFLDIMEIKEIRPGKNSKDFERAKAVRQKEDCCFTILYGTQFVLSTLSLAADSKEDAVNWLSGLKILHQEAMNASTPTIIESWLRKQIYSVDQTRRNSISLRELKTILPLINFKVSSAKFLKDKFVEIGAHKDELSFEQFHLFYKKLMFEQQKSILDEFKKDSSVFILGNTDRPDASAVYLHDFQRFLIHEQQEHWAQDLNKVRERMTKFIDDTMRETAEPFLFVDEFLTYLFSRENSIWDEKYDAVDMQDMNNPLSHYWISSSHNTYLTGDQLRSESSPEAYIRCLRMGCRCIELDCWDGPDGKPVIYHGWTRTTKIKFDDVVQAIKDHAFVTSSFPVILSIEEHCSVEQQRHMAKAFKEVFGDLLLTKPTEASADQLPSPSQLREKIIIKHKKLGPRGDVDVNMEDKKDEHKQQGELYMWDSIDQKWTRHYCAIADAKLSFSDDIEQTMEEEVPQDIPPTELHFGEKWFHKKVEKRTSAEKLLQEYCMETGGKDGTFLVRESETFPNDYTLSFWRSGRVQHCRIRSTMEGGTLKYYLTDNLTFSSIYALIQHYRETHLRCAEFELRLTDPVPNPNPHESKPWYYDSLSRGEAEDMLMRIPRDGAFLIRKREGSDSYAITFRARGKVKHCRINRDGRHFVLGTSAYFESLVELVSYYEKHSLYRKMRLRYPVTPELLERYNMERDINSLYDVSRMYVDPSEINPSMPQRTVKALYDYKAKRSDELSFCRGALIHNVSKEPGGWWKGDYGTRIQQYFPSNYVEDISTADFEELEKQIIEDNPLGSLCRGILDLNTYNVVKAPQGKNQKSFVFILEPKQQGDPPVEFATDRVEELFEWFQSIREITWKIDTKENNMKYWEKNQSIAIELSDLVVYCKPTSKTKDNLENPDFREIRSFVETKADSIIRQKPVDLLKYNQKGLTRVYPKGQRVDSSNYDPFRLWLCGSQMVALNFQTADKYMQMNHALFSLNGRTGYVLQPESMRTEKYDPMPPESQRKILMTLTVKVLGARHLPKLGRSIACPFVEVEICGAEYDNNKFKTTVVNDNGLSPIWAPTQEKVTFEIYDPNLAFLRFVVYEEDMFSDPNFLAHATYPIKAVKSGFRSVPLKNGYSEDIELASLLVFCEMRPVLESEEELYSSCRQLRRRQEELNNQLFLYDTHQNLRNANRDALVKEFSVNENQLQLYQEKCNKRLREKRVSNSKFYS
UniProt P23743: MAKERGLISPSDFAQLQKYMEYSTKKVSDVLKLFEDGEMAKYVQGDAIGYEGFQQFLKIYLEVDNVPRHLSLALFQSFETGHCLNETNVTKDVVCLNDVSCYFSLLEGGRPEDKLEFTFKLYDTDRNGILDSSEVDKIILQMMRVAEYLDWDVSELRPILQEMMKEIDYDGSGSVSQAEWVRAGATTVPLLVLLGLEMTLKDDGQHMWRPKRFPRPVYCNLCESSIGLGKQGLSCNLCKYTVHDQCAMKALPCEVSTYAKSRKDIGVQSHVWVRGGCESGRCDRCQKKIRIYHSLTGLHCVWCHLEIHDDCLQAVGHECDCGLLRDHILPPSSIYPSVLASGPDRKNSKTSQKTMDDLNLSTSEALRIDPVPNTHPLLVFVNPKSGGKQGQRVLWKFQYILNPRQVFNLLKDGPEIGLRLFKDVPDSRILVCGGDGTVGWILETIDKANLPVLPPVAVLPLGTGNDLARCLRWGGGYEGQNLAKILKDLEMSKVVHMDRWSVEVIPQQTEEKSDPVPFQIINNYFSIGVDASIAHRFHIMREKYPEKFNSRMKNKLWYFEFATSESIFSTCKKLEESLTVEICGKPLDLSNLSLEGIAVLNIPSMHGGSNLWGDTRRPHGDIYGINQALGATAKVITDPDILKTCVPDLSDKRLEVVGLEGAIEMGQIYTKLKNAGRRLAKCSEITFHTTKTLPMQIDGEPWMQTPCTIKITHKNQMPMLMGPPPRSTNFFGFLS

compound: CN[C@@H]1C[C@H]2O[C@@](C)([C@@H]1OC)n1c3ccccc3c3c4c(c5c6ccccc6n2c5c31)C(=O)NC4 [staurosporine]; assay: log2 fold change of tryptic peptide abundance, ligand vs vehicle (limited proteolysis) (log2 ratio); higher = more trypsin-susceptible (destabilized); settings: ligand concentration: 20 uM; sample: K562 cleared lysate; digestion: 4 min, 22 C (HT-PELSA RT4min, Orbitrap Astral)

**Q.** For “ST6GAL1 (peptide sequence: CAVVSSAGSLK, peptide start residue: 184) (UniProt P15907)”, which log2 fold change is on record?
**A.** The log2 fold change was -0.217.

**Q.** With “U2AF2 (peptide sequence: SIEIPRPVDGVEVPGCGK, peptide start residue: 414) (UniProt P26368)” as the target, how does the log2 fold change read?
**A.** Its log2 fold change is 0.386.

**Q.** For “DNMT1 (peptide sequence: FKNSLVVSFLSYCDYYRPR, peptide start residue: 1243) (UniProt P26358)”, which log2 fold change is on record?
**A.** Its log2 fold change is 1.01.

**Q.** How did the log2 fold change turn out when “HIST1H1B (peptide sequence: KATGPPVSELITK, peptide start residue: 37) (UniProt P16401)” was run?
**A.** The log2 fold change was -0.0893.

**Q.** Which log2 fold change does the source give for “UniProt P15622 (peptide sequence: AFTQLSHLIQHQR, peptide start residue: 291)” here?
**A.** Its log2 fold change is -0.157.

**Q.** With “TFE3 (peptide sequence: SHAAEPARDGVEASAEGPR, peptide start residue: 2) (UniProt P19532)” as the target, how does the log2 fold change read?
**A.** The log2 fold change was 0.148.

**Q.** For “MTHFD2 (peptide sequence: SKELGVATN, peptide start residue: 342) (UniProt P13995)”, which log2 fold change is on record?
**A.** Its log2 fold change is -0.178.

**Q.** How did the log2 fold change turn out when “UniProt P17481 (peptide sequence: RIEVSHALGLTER, peptide start residue: 176)” was run?
**A.** The log2 fold change was 0.144.

**Q.** How did the log2 fold change turn out when “YY1 (peptide sequence: SYLSGGAGAAGGGGADPGNKK, peptide start residue: 184) (UniProt P25490)” was run?
**A.** Its log2 fold change is -0.218.

**Q.** With “PLCG2 (peptide sequence: GDVDVNMEDKKDEHK, peptide start residue: 462) (UniProt P16885)” as the target, how does the log2 fold change read?
**A.** Its log2 fold change is 0.457.

**Q.** With “DGKA (peptide sequence: DIGVQSHVWVR, peptide start residue: 264) (UniProt P23743)” as the target, how does the log2 fold change read?
**A.** Its log2 fold change is -0.386.

**Q.** How did the log2 fold change turn out when “PSMA3 (peptide sequence: AFELELSWVGELTNGRHEIVPK, peptide start residue: 209) (UniProt P25788)” was run?
**A.** The log2 fold change was -0.951.
